Source: PMC11432204
No constants are given. Whether binding was seen depends on the method and setting. In cells and extracts the contact can be indirect. Some results given as binding are weak or reduced against the parent protein; the word gives no strength.

Protein sequences, listed by entry. Tags and fused reporters are not part of them.
UniProt Q8BLD9: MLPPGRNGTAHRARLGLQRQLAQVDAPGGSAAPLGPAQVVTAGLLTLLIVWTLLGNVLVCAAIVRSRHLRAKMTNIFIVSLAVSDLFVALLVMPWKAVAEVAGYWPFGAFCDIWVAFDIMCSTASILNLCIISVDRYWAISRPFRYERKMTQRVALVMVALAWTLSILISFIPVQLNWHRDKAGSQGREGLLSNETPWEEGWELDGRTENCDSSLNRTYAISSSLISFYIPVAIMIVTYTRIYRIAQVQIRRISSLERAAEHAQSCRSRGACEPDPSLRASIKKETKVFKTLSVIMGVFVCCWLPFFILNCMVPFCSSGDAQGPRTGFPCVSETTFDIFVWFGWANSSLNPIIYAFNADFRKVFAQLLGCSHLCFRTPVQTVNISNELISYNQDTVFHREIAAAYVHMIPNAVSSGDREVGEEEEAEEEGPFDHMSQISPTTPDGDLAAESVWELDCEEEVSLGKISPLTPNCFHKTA

Biological target: Dopamine receptor D5 (mouse (endogenous in primary CD4+ T-cells)) (UniProt Q8BLD9)
Assay: proximity ligation; in situ PLA on fixed, permeabilised colonic sections of Drd5-/- mice with DSS colitis that had received Drd5+/+ CD4+ T-cells (pre-treated with DMSO, TM6C or TM7C, 4 uM); rabbit anti-CCR9 and mouse anti-DRD5, Duolink In Situ Red kit; mice injected with PBS as control

binding: binds
B1: C-C chemokine receptor 9 (receptor, UniProt Q9WUT7 1-369)
chain: MMPTELTSLIPGMFDDFSYDSTASTDDYMNLNFSSFFCKKNNVRQFASHFLPPLYWLVFIVGTLGNSLVILVYWYCTRVKTMTDMFLLNLAIADLLFLATLPFWAIAAAGQWMFQTFMCKVVNSMYKMNFYSCVLLIMCISVDRYIAIVQAMKAQVWRQKRLLYSKMVCITIWVMAAVLCTPEILYSQVSGESGIATCTMVYPKDKNAKLKSAVLILKVTLGFFLPFMVMAFCYTIIIHTLVQAKKSSKHKALKVTITVLTVFIMSQFPYNSILVVQAVDAYAMFISNCTISTNIDICFQVTQTIAFFHSCLNPVLYVFVGERFRRDLVKTLKNLGCISQAQWVSFTRREGSLKLSSMLLETTSGALSL
